For 1 molecule, binding results are on record in paper doi:10.1101/2020.04.06.026963.

Sequences of proteins named here, by UniProt entry; tags and fusion partners are left off.
UniProt Q61286: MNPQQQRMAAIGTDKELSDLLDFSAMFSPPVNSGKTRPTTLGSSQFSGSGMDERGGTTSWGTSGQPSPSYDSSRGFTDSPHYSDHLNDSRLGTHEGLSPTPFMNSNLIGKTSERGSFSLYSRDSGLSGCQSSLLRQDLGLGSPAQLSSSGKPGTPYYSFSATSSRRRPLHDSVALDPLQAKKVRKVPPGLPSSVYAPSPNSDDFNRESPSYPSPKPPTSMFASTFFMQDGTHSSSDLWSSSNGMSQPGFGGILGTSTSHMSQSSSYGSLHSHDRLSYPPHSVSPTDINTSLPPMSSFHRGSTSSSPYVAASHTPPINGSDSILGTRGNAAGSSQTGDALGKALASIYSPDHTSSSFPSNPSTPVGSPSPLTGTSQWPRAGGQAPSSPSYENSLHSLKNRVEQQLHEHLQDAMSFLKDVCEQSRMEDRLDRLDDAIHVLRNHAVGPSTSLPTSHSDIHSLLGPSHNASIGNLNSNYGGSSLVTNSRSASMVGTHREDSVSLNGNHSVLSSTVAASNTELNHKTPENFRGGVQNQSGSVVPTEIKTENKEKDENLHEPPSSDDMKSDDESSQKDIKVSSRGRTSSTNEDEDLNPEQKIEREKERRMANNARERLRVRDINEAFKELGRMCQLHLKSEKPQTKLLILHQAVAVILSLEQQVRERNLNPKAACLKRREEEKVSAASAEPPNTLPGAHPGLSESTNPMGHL

For this experiment, the target named is HEB (mouse (endogenous in Comma-Dβ)) (UniProt Q61286). The experiment in a line: affinity purification with mass spectrometry.

Results are given in words; binding and its absence hold for the method and conditions named. In cells and extracts the contact can be indirect. A yes stands for co-enrichment or nearness to the bait. Other partners may have been found.

B1: Inhibitor of Differentiation 4 (ID4) (protein, UniProt P41139 1-161)
chain: MKAVSPVRPSGRKAPSGCGGGELALRCLAEHGHSLGGSAAAAAAAAAARCKAAEAAADEPALCLQCDMNDCYSRLRRLVPTIPPNKKVSKVEILQHVIDYILDLQLALETHPALLRQPPPPAPPLHPAGACPVAPPRTPLTALNTDPAGAVNKQGDSILCR
With B1, the binding result is given as “binds”.
